Measured values taken from PubChem BioAssay AID504444 (National Center for Advancing Translational Sciences (NCATS), 2011).
About 7,500 (2.1%) of roughly 360,000 compounds were called active. This list was built around the results that the source calls inconclusive (neither active nor inactive); the mix of calls is not that of the screen. The call rests on the fitted dose curve; in most records, active means well fitted inhibition curve with a large enough effect; inconclusive means small, poorly fitted or top-dose-only effect, or effect the other way; inactive means flat fitted curve, though single readings scatter. Potencies of inconclusive entries are doubtful fits and often do not repeat.

Assay: Nrf2 qHTS screen for inhibitors; further: nearly all actives have a fitted effect of over 60% in size
Details: A549 ARE-Fluc reporter, luciferase luminescence, 18-24 h; activity change, negative = inhibition: at 46 µM (top of the series)
Outline: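 A549 ARE_Fluc cells, 5000/well, 5% FBS OPTI-MEM; compounds in dose-response, 18-24 h at 37 °C/5% CO2; CellTiter-Fluor viability read (Ex 405/Em 525), then BugLite luciferase luminescence = Nrf2 activity.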
On the % scale 0 is the no-effect control and ±100 the full control effect; potency means the concentration at half of the fitted maximal effect.

Row | SMILES | Potency | activity change, negative = inhibition
1 | O=c1c2ccccc2nc2ccccn12 | inconclusive: 20.6 µM [activator, partial curve, poor fit] | 
2 | Cc1sc2nc3c4ccccc4c(NCc4ccco4)nn3c(=O)c2c1C | inconclusive: 9.2 µM [activator, partial curve] | 
3 | COc1cccc(-n2nnnc2SCC(=O)Nc2ccc3c(c2)OCCO3)c1 | inconclusive: 35.5 µM [falling, single point] | 
4 | CC1CCN(C(=O)c2cc(-c3ccc4c(c3)OCO4)on2)CC1 | inconclusive: 18.4 µM [activator, partial curve] | 
5 | N#Cc1sc2nccc(Nc3ccccc3)c2c1N | inconclusive: 16.4 µM [falling, single point] | 
6 | COc1ccc(C(=O)CC(Nc2ccc([N+](=O)[O-])cc2)c2ccc(Cl)cc2)cc1 (stereo unspecified) | active: 6.51 µM | 
7 | CC(C)(C)OC(=O)NCCCC[C@H](NC(=O)c1nc[nH]c1C(=O)NCc1ccc(CNC(=O)OC(C)(C)C)cc1)C(=O)OC(C)(C)C | inconclusive: 23.1 µM [falling, single point] | 
8 | O=C(COc1cccc(Cl)c1)Nc1nc(-c2ccc(S(=O)(=O)N3CCOCC3)cc2)cs1 | inconclusive: 23.1 µM [falling, single point] | 
9 | COC(=O)c1c(NC(=S)Nc2ccccc2Cl)sc(C)c1C | inconclusive: 32.6 µM [falling, partial curve, poor fit] | 
10 | CCC(C)(C)C1CCC2(CC1)NC(=O)N(CC(=O)N(C)CC(=O)Nc1ccccc1C(F)(F)F)C2=O (stereo unspecified) | active: 14.6 µM | 
11 | C[C@@H]1CC=C[C@H]2[C@H]1C(=O)N(Cc1ccccc1)[C@H]2c1ccc(F)c(-c2ccc(N(C)C)cc2)c1 | inconclusive: 29.1 µM [falling, single point] | 
12 | Cn1c(SCc2ccc(F)cc2)nc2ccc(C(=O)NCc3ccccc3)cc21 | inconclusive: 16.4 µM [falling, single point] | 
13 | O=[N+]([O-])c1ccc(S(=O)(=O)Nc2ccc(S(=O)(=O)N3CCCC3)cc2)cc1 | inconclusive: 18.4 µM [falling, partial curve, poor fit] | 
14 | CCCCn1cc(S(=O)(=O)c2ccc(Cl)cc2)c(=O)c2cc(F)c(N3CCCCC3)cc21 | inconclusive: 29.1 µM [activator, single point] | 
15 | CC(=O)c1c(C)[nH]c(C(=O)COC(=O)c2c(-c3ccccc3)noc2C)c1C | inconclusive: 29.1 µM [falling, partial curve, poor fit] | 
16 | Cc1ccc(OCC(=O)Nc2ccc(S(=O)(=O)N(Cc3ccccc3)c3ccccc3)cc2)cc1 | inconclusive: 29.1 µM [falling, single point] | 
17 | CCCCn1c2ccc(F)cc2c2nnc(SCCN3CCOCC3)nc21 | inconclusive: 23.1 µM [falling, partial curve, poor fit] | 
18 | CCCN(CC(=O)Nc1ccccc1C)C(=O)c1ccc(COc2ccccc2)cc1 | inconclusive: 14.6 µM [falling, partial curve, poor fit] | 
19 | CN(CCCNC(=O)c1cn(C)c2ccc(S(=O)(=O)N(C)C)cc2c1=O)c1ccccc1 | inconclusive: 29.1 µM [falling, partial curve, poor fit] | 
20 | CCOC(=O)c1ccc(NC(=O)CC2C(=O)N(c3ccccc3)C(=O)N2C2CCCCC2)cc1 (stereo unspecified) |  | inactive: -4.03%
21 | COc1ccc(CCNC(C(=O)Nc2cc(C)cc(C)c2)c2ccccc2)cc1 (stereo unspecified) | inconclusive: 29.1 µM [falling, single point] | 

Of the compounds above, 12 have nitrogen in an aromatic ring.
Row | SMILES | Potency | activity change, negative = inhibition
1 | O=c1c2ccccc2nc2ccccn12 | inconclusive: 20.6 µM [activator, partial curve, poor fit] | 
2 | Cc1sc2nc3c4ccccc4c(NCc4ccco4)nn3c(=O)c2c1C | inconclusive: 9.2 µM [activator, partial curve] | 
3 | COc1cccc(-n2nnnc2SCC(=O)Nc2ccc3c(c2)OCCO3)c1 | inconclusive: 35.5 µM [falling, single point] | 
4 | CC1CCN(C(=O)c2cc(-c3ccc4c(c3)OCO4)on2)CC1 | inconclusive: 18.4 µM [activator, partial curve] | 
5 | N#Cc1sc2nccc(Nc3ccccc3)c2c1N | inconclusive: 16.4 µM [falling, single point] | 
7 | CC(C)(C)OC(=O)NCCCC[C@H](NC(=O)c1nc[nH]c1C(=O)NCc1ccc(CNC(=O)OC(C)(C)C)cc1)C(=O)OC(C)(C)C | inconclusive: 23.1 µM [falling, single point] | 
8 | O=C(COc1cccc(Cl)c1)Nc1nc(-c2ccc(S(=O)(=O)N3CCOCC3)cc2)cs1 | inconclusive: 23.1 µM [falling, single point] | 
12 | Cn1c(SCc2ccc(F)cc2)nc2ccc(C(=O)NCc3ccccc3)cc21 | inconclusive: 16.4 µM [falling, single point] | 
14 | CCCCn1cc(S(=O)(=O)c2ccc(Cl)cc2)c(=O)c2cc(F)c(N3CCCCC3)cc21 | inconclusive: 29.1 µM [activator, single point] | 
15 | CC(=O)c1c(C)[nH]c(C(=O)COC(=O)c2c(-c3ccccc3)noc2C)c1C | inconclusive: 29.1 µM [falling, partial curve, poor fit] | 
17 | CCCCn1c2ccc(F)cc2c2nnc(SCCN3CCOCC3)nc21 | inconclusive: 23.1 µM [falling, partial curve, poor fit] | 
19 | CN(CCCNC(=O)c1cn(C)c2ccc(S(=O)(=O)N(C)C)cc2c1=O)c1ccccc1 | inconclusive: 29.1 µM [falling, partial curve, poor fit] | 

The list continues.

Row | SMILES | Potency | activity change, negative = inhibition
22 | CCOC(=O)c1c(C)c(C)n(Cc2cccc(OC)c2OC)c1C | inconclusive: 23.1 µM [falling, partial curve] | 
23 | O=C(CSc1cn(CCNC(=O)c2cccs2)c2ccccc12)NC1CCCC1 | inconclusive: 16.4 µM [falling, single point] | 
24 | CCOc1cccc(C(=O)NC(=S)Nc2ccc3c(c2)OCCO3)c1 | inconclusive: 5.17 µM [activator, full curve] | 
25 | Cc1ccc(C(=O)N2CCC(C(=O)c3ccc(Cl)cc3)CC2)cc1 | inconclusive: 29.1 µM [falling, single point] | 
26 | COc1ccc(NC(=O)c2c[nH]n3c(=O)cc(C4CCN(C(=O)OC(C)(C)C)CC4)nc23)cc1Cl |  | inactive: -2.27%
27 | CCC(=O)Nc1ccc(-c2csc(C)n2)cc1 | inconclusive: 3.26 µM [activator, partial curve, poor fit] | 
28 | O=C(NCCc1cccc(Cl)c1)c1ccc2c(c1)OCO2 | inconclusive: 0.366 µM [activator, full curve] | 
29 | COc1cccc(CNCCSc2nnnn2C)c1OCc1ccc(Cl)cc1 | inconclusive: 5.8 µM [falling, partial curve, poor fit] | 
30 | O=C(NC(=S)Nc1ccc(N2CCOCC2)cc1)c1cccs1 | inconclusive: 3.26 µM [activator, full curve, poor fit] | 
31 | COc1ccc(C2(C)CC(C)(C)Nc3ccccc32)cc1 (stereo unspecified) | inconclusive: 29.1 µM [falling, single point] | 
32 | CCc1ccc(Cn2nnc(C(=O)Nc3ccc(C)cc3)c2N)cc1 | inconclusive: 9.2 µM [activator, partial curve, poor fit] | 
33 | CC(C)c1ccc(NC(=O)C2CCCN(S(=O)(=O)c3ccc4[nH]c(=O)ccc4c3)C2)cc1 (stereo unspecified) | inconclusive: 29.1 µM [falling, single point] | 
34 | O=C(Nc1ccc(Nc2ccccc2)cc1)c1c(F)c(F)c(F)c(F)c1F | inconclusive: 6.51 µM [falling, full curve, poor fit] | 
35 | CC(=O)CCSc1nnc(-c2cccc(S(=O)(=O)N3CCOCC3)c2)o1 |  | inactive: 8.72%
36 | COc1nc(-c2ccc(Cl)cc2)nnc1C | inconclusive: 16.4 µM [activator, partial curve] | 
37 | Cc1cc(N/N=C/c2cccc(Cl)c2)nc(NCc2ccccc2)n1 | inconclusive: 29.1 µM [falling, single point] | 
38 | Cc1ccc2nc(-c3ccc(C)o3)c(Nc3ccccc3)n2c1 | inconclusive: 3.66 µM [activator, partial curve, poor fit] | 
39 | c1ccc(Nc2nc(NCC3CCCO3)c3ccccc3n2)cc1 (stereo unspecified) | active: 18.4 µM | 
40 | O=C(NCCCCc1ccccc1)c1nn(-c2ccccc2)nc1CO | active: 23.1 µM | 
41 | COc1cc([N+](=O)[O-])ccc1NC(=O)CCCOc1cccc(C)c1 | inconclusive: 9.2 µM [falling, partial curve, poor fit] | 
42 | CCOC(=O)c1c(NC(=O)C(C)N2CCN(C(=O)c3ccco3)CC2)sc2c1CCCC2 (stereo unspecified) | inconclusive: 23.1 µM [falling, single point] | 

A second format for 2 compounds above:
Row,SMILES,Potency,"activity change, negative = inhibition"
24,CCOc1cccc(C(=O)NC(=S)Nc2ccc3c(c2)OCCO3)c1,"inconclusive: 5.17 µM [activator, full curve]",
25,Cc1ccc(C(=O)N2CCC(C(=O)c3ccc(Cl)cc3)CC2)cc1,"inconclusive: 29.1 µM [falling, single point]",

Additional structures follow.

Row | SMILES | Potency | activity change, negative = inhibition
43 | CCN(CC(=O)Nc1cc(S(=O)(=O)N2CCCCC2)ccc1C)Cc1ccccc1 | inconclusive: 29.1 µM [falling, single point] | 
44 | Cc1ccc(NC(=O)c2onc(C)c2Cl)cc1 | inconclusive: 29.1 µM [activator, single point] | 
45 | COc1ccc(NC(=O)Cn2nnc(C(=O)Nc3ccc(C)c(F)c3)c2N)cc1Cl | inconclusive: 8.2 µM [activator, partial curve, poor fit] | 
46 | CCn1nnc(-c2ccccc2NC(=O)c2cccc(-n3cnnn3)c2)n1 | inconclusive: 1.3 µM [falling, full curve, poor fit] | 
47 | O=C(CN1CCOCC1)Nc1ccc(C2CCCCC2)cc1 | inconclusive: 3.26 µM [activator, full curve, poor fit] | 
48 | CC(NC(=O)NC(=O)c1ccc(Cl)cc1Cl)C1CC1 (stereo unspecified) | inconclusive: 20.6 µM [activator, partial curve, poor fit] | 
49 | COc1ccc(CNC(=O)c2cc(C(=O)C3CC3)c[nH]2)cc1 | inconclusive: 18.4 µM [falling, single point] | 
50 | CCOc1ccc(Nc2nc(Cc3nnc(SCC(=O)c4ccc(C)c(C)c4)o3)cs2)cc1 | inconclusive: 32.6 µM [falling, single point] | 
51 | CC1CCc2c(sc(NC(=O)c3ccc(-c4ccccc4[N+](=O)[O-])o3)c2C#N)C1 (stereo unspecified) | inconclusive: 2.31 µM [falling, full curve] | 
52 | CCc1ccc(N2CC(C(=O)N3CCN(c4ccccn4)CC3)CC2=O)cc1 (stereo unspecified) | inconclusive: 2.31 µM [falling, full curve, poor fit] | 
53 | c1nc(NCC2CCCO2)c2ccc(-c3ccc4c(c3)OCO4)cc2n1 (stereo unspecified) | inconclusive: 32.6 µM [falling, partial curve, poor fit] | 
54 | O=C(/C=C/c1cccnc1)c1cccc(O)c1 |  | inactive: -5.12%
55 | O=C(Cc1ccccc1F)N1CCC(c2nc3c(nnn3Cc3cccc(Cl)c3)c(=O)[nH]2)CC1 | inconclusive: 18.4 µM [falling, single point] | 
56 | COc1ccccc1N1CCN(C(=O)c2cc3c(C)nc4ccccc4c3o2)CC1 | inconclusive: 18.4 µM [falling, partial curve, poor fit] | 
57 | C=CCN1C(=Nc2ccccc2)SC/C1=C\C(=O)OC | inconclusive: 29.1 µM [falling, single point] | 
58 | Cc1ccc(S(=O)(=O)NCc2ccccc2)cc1C(=O)N1CCCC(C(F)(F)F)C1 (stereo unspecified) | inconclusive: 16.4 µM [falling, single point] | 
59 | COc1ccc(C(=O)COC(=O)CCc2nc3ccccc3[nH]c2=O)cc1Br | inconclusive: 20.6 µM [activator, single point] | 
60 | O=C(Nc1ccc(S(=O)(=O)N2CCCCC2)cc1)c1ccc(Cl)nc1 | active: 18.4 µM | 
61 | O=C(Nc1ccc(Oc2nnc(-c3ccccc3)c3ccccc23)cc1)c1ccccc1 |  | inactive: -22.8%
